Measured values as given in doi:10.1101/2025.11.21.689547.
No constants are given. Whether binding was seen depends on the method and setting. In cells and extracts the contact can be indirect. Here binding means that the protein was enriched with, or labelled near, the bait; the list need not be complete. For some of these results: A no says only that the protein was not detected with the bait.

Sequences of proteins named here, by UniProt entry; tags and fusion partners are left off.
UniProt Q14152: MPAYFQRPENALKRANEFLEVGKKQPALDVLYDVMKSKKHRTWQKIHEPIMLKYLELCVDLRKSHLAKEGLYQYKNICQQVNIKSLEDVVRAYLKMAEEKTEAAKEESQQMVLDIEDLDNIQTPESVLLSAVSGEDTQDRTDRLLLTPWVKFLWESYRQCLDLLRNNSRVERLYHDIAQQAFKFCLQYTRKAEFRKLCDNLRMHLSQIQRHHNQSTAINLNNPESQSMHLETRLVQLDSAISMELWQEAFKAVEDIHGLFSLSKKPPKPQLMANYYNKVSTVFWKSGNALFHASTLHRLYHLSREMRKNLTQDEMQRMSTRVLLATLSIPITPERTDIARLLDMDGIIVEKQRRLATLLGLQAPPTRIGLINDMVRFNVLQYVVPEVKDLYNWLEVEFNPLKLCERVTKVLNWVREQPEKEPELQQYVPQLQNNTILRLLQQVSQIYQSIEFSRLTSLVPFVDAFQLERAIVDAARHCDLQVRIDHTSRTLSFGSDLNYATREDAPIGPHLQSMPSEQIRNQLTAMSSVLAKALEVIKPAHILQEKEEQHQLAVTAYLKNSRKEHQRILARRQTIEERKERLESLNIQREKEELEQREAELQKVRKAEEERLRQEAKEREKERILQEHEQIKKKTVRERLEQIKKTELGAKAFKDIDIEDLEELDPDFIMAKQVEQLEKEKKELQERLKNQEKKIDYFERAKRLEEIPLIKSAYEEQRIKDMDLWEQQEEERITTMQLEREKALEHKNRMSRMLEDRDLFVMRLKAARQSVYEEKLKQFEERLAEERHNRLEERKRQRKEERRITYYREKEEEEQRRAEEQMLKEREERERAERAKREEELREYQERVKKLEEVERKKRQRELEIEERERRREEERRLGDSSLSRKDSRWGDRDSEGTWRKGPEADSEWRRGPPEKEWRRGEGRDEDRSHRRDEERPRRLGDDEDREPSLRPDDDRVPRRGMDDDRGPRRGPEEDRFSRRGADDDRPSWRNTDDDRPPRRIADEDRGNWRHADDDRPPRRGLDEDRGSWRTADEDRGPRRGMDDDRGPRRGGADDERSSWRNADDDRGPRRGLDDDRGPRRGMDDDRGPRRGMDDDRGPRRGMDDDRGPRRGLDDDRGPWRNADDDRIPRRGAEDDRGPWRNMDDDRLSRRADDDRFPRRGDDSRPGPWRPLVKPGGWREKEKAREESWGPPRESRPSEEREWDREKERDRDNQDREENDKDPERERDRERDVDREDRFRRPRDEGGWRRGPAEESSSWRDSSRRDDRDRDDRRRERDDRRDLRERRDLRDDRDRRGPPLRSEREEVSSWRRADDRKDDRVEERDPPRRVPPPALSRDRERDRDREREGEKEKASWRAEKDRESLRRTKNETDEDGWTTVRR
UniProt P06634: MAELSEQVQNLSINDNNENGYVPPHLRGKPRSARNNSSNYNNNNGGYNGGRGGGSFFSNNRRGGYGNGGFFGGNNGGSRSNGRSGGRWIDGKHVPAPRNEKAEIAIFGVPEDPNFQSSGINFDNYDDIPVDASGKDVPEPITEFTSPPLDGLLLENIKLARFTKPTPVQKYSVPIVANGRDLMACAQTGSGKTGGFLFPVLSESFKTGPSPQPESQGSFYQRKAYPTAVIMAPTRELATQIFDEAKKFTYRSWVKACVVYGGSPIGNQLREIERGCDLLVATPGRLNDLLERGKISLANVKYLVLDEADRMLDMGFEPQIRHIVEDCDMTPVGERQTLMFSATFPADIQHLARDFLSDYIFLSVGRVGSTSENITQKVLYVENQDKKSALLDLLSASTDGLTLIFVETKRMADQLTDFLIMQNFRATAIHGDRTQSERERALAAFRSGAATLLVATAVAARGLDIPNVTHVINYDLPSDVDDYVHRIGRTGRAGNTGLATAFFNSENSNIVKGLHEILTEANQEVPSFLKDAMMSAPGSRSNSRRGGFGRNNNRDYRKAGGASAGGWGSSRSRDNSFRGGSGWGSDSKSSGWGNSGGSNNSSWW
UniProt P16892: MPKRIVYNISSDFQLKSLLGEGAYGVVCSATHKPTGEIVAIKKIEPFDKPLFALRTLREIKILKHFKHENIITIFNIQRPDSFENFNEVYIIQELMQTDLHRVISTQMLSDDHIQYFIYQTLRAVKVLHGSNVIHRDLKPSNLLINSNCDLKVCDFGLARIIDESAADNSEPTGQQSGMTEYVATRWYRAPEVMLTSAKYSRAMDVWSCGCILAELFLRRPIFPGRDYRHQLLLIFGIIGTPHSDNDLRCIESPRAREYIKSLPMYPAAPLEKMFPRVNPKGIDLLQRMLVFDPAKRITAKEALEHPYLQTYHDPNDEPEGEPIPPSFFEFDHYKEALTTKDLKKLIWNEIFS
UniProt Q13868: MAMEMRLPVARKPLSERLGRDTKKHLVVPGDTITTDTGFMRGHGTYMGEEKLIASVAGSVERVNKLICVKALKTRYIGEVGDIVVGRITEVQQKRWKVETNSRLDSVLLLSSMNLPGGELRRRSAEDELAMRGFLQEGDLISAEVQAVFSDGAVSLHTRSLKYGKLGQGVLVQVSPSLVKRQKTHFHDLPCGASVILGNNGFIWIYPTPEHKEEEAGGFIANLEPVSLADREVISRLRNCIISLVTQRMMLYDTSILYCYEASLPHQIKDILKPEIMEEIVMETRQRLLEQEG
UniProt Q9Y262: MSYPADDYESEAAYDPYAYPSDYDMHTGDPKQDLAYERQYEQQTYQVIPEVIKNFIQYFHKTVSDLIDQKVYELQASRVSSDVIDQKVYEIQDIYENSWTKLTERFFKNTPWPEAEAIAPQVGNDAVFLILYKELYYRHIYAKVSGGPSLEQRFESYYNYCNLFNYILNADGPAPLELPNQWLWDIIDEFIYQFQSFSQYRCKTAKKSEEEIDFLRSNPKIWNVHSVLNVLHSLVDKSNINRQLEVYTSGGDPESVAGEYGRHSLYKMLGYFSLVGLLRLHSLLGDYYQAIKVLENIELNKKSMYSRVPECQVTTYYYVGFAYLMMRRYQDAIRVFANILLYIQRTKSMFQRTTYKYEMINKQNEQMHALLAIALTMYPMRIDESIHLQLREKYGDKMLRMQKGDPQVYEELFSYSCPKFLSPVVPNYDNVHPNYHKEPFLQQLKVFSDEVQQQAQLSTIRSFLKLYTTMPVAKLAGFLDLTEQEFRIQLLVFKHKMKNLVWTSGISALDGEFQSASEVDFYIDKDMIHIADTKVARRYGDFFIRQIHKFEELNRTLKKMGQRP
UniProt O75822: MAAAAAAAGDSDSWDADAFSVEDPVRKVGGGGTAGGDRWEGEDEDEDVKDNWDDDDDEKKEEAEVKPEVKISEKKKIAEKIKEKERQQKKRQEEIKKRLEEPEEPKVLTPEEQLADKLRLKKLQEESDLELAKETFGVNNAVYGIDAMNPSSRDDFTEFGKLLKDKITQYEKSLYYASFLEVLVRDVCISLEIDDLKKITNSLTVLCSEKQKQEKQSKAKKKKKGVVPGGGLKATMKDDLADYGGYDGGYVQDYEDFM
UniProt P24784: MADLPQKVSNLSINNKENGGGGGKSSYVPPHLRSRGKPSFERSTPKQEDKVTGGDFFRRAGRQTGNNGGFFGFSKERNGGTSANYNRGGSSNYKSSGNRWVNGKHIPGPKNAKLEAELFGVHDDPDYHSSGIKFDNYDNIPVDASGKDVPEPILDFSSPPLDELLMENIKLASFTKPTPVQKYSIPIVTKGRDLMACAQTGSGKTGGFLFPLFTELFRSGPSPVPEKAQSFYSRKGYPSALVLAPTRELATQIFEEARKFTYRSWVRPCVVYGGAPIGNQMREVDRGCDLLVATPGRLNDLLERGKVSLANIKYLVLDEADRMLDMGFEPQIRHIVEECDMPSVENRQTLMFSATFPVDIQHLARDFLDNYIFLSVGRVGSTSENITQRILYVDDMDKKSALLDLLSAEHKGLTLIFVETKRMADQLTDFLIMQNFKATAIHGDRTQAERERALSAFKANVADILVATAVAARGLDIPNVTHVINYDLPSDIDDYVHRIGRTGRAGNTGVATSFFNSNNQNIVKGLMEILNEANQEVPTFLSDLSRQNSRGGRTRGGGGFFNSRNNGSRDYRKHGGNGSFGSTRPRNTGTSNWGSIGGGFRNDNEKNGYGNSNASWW
UniProt P40460: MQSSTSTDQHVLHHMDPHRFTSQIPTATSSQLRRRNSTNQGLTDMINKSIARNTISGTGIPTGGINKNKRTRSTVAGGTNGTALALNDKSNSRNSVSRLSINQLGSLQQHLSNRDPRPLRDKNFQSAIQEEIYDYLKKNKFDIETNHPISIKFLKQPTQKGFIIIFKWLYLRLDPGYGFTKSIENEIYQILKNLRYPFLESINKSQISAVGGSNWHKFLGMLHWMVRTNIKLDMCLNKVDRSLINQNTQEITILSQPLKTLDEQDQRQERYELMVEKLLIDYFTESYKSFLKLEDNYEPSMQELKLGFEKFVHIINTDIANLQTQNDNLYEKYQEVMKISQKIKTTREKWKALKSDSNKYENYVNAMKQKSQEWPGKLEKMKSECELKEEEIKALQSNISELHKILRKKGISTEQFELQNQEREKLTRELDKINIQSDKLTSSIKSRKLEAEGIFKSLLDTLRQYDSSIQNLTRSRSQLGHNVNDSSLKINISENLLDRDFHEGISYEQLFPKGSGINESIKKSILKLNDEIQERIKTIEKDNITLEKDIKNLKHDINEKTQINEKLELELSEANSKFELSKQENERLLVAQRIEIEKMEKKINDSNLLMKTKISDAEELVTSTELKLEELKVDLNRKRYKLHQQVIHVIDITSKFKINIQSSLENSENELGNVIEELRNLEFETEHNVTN
UniProt O95639: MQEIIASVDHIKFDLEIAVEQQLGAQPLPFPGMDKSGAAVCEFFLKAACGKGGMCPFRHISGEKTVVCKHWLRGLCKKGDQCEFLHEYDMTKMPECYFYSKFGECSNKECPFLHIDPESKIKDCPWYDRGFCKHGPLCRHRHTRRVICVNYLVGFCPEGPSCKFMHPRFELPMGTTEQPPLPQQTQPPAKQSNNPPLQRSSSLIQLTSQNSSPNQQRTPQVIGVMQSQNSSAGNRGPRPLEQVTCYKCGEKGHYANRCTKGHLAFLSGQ
UniProt P60228: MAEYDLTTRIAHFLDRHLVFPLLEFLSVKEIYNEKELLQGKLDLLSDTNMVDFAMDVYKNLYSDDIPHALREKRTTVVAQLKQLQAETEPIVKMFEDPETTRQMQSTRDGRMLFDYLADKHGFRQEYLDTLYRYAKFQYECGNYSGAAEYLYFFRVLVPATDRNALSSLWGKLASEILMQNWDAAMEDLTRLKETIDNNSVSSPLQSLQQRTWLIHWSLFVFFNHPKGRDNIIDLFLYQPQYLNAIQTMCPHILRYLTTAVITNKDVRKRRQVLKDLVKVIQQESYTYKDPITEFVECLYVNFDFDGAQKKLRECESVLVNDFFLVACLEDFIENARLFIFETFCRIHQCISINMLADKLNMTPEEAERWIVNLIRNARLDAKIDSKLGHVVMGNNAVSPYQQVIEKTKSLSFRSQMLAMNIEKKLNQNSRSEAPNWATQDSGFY
UniProt O00303: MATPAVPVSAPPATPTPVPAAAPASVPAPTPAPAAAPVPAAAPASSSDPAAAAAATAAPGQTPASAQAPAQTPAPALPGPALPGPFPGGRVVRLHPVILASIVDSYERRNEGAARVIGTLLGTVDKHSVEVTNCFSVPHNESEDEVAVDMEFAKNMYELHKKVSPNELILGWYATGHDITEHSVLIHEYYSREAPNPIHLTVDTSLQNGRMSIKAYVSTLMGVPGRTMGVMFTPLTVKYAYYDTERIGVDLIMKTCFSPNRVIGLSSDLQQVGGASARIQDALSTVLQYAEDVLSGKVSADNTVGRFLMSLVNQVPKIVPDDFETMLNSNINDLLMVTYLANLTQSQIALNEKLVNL
UniProt Q9UBQ5: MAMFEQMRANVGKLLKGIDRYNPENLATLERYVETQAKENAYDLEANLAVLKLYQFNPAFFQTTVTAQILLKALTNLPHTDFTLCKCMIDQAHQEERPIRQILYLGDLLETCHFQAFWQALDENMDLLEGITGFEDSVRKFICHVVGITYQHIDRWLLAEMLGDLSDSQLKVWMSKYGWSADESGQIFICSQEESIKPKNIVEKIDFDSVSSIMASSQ

Columns and labels:
Test in all cases: affinity purification with mass spectrometry
[1] = molecular target: eIF3A (human (endogenous in HEK293XT)) (UniProt Q14152)
[2] = molecular target: T1, EXOSC10 (human (endogenous in HEK293XT)) (UniProt Q01780)
T1 sequence: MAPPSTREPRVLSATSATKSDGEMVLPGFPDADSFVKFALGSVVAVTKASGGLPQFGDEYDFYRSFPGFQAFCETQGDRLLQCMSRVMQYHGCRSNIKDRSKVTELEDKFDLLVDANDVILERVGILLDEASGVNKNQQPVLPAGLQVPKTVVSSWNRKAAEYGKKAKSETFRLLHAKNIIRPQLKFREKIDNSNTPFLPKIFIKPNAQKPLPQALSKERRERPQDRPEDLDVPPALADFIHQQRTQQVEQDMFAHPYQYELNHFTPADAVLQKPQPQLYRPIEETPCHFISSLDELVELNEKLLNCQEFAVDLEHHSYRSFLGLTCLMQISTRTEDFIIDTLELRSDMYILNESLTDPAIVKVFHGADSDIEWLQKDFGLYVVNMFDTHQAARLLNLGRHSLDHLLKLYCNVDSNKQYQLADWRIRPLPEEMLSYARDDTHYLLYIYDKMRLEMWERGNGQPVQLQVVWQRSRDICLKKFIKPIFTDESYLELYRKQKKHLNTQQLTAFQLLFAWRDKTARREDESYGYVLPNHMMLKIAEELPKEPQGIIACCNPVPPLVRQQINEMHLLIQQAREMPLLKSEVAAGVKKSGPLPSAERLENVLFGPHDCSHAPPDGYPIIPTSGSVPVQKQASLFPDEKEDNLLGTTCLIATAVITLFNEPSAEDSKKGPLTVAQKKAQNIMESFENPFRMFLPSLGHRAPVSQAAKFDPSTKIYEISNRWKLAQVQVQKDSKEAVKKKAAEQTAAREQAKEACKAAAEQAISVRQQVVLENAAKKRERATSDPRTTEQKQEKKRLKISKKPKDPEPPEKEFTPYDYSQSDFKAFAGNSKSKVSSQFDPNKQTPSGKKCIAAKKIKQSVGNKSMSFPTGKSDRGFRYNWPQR

[3] = molecular target: DED1 (Saccharomyces cerevisiae) (UniProt P06634)
[4] = molecular target: FUS3 (Saccharomyces cerevisiae) (UniProt P16892)
[5] = molecular target: T2, CSTF2 (human (endogenous in HEK293XT)) (UniProt P33240)
T2 sequence: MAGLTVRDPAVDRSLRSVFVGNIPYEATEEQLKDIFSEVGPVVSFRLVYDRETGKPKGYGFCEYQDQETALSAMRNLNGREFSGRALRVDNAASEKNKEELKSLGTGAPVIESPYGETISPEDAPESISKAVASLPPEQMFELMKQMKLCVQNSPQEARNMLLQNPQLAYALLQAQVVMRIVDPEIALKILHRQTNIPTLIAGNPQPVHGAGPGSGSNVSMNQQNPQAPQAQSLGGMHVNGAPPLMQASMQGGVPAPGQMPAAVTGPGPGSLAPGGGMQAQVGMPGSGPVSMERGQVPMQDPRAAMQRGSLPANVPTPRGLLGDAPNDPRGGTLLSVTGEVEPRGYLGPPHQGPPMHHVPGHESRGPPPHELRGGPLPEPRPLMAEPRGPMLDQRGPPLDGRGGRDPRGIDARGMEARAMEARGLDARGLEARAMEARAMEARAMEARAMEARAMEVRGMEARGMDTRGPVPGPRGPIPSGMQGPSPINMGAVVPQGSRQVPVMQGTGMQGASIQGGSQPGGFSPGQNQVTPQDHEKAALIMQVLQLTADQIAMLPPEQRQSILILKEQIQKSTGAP

[6] = molecular target: EXOSC2 (human (endogenous in HEK293XT)) (UniProt Q13868)

eIF3L (from UniProt Q9Y262 1-564)
binding [1]: binds

EXOSC2 (from UniProt Q13868 1-293)
binding [2]: binds

eIF3J (from UniProt O75822 1-258)
binding [1]: binds

DBP1 (from UniProt P24784 1-617)
binding [3]: binds

NDC80 (from UniProt P40460 1-691)
binding [4]: no binding

CPSF4 (from UniProt O95639 1-269)
binding [5]: binds

eIF3E (from UniProt P60228 1-445)
binding [1]: binds

eIF3F (from UniProt O00303 1-357)
binding [1]: binds

eIF3K (from UniProt Q9UBQ5 1-218)
binding [1]: binds

B1: EXOSC10 (protein, UniProt Q01780 1-885)
chain: MAPPSTREPRVLSATSATKSDGEMVLPGFPDADSFVKFALGSVVAVTKASGGLPQFGDEYDFYRSFPGFQAFCETQGDRLLQCMSRVMQYHGCRSNIKDRSKVTELEDKFDLLVDANDVILERVGILLDEASGVNKNQQPVLPAGLQVPKTVVSSWNRKAAEYGKKAKSETFRLLHAKNIIRPQLKFREKIDNSNTPFLPKIFIKPNAQKPLPQALSKERRERPQDRPEDLDVPPALADFIHQQRTQQVEQDMFAHPYQYELNHFTPADAVLQKPQPQLYRPIEETPCHFISSLDELVELNEKLLNCQEFAVDLEHHSYRSFLGLTCLMQISTRTEDFIIDTLELRSDMYILNESLTDPAIVKVFHGADSDIEWLQKDFGLYVVNMFDTHQAARLLNLGRHSLDHLLKLYCNVDSNKQYQLADWRIRPLPEEMLSYARDDTHYLLYIYDKMRLEMWERGNGQPVQLQVVWQRSRDICLKKFIKPIFTDESYLELYRKQKKHLNTQQLTAFQLLFAWRDKTARREDESYGYVLPNHMMLKIAEELPKEPQGIIACCNPVPPLVRQQINEMHLLIQQAREMPLLKSEVAAGVKKSGPLPSAERLENVLFGPHDCSHAPPDGYPIIPTSGSVPVQKQASLFPDEKEDNLLGTTCLIATAVITLFNEPSAEDSKKGPLTVAQKKAQNIMESFENPFRMFLPSLGHRAPVSQAAKFDPSTKIYEISNRWKLAQVQVQKDSKEAVKKKAAEQTAAREQAKEACKAAAEQAISVRQQVVLENAAKKRERATSDPRTTEQKQEKKRLKISKKPKDPEPPEKEFTPYDYSQSDFKAFAGNSKSKVSSQFDPNKQTPSGKKCIAAKKIKQSVGNKSMSFPTGKSDRGFRYNWPQR
binding [6]: binds
